# Tags and fusion partners may be left off the protein sequences shown.
# Test system: T1, AgeI methyltransferase (AgeIM) (Agrobacterium gelatinovorum)
# T1 sequence: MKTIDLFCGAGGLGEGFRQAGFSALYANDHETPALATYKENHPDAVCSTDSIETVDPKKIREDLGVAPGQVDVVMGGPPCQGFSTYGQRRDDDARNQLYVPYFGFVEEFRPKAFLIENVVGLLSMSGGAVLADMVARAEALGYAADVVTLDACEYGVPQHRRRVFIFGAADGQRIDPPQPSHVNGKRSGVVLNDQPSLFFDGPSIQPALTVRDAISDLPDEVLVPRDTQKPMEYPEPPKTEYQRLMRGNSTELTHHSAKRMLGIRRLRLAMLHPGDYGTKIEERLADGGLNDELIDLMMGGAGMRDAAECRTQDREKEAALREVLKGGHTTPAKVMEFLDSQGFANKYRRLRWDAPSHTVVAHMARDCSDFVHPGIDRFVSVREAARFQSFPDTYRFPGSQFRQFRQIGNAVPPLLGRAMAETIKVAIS
# Assay: activity in cells
# Settings: plasmids #1 and #26 carrying ageIM fully resistant to AgeI digestion (in vivo modification); protein in cells; only the site is given
sequence,measurement,value
GACCGGTC (double strand) [AgeI linker sites in plasmid pAge-2],activity on this sequence,active

# Source: US5885818
